Data as given in the supplement of paper PMC6411743.
± gives the standard deviation of the averaged measurements. Only a part is listed here, and it is no random draw. Most values lie at the level of the controls, where differences are scatter.

Sequences of proteins named here, by UniProt entry; tags and fusion partners are left off. A change or cut given only in a name is not applied to a line headed by its entry.
UniProt P07992: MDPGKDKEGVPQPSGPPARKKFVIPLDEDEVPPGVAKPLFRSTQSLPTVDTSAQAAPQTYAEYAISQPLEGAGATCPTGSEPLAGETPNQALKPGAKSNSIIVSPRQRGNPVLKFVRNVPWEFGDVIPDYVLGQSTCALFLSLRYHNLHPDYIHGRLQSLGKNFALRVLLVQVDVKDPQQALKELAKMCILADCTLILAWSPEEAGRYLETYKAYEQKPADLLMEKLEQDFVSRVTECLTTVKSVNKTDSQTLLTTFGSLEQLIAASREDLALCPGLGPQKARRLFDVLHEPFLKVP
UniProt P07437, whole entry: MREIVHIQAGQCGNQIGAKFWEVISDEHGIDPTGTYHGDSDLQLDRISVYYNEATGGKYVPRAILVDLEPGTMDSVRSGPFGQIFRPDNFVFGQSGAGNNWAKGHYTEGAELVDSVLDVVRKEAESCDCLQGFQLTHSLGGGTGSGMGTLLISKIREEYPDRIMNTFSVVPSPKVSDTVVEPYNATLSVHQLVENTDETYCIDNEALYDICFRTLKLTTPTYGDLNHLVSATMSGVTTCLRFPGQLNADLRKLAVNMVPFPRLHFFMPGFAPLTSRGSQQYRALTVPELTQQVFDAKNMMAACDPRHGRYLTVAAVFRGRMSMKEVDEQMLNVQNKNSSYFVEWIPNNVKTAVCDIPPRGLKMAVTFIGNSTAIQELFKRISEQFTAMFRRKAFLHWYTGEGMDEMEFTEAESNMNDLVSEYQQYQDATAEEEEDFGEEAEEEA
UniProt P00558: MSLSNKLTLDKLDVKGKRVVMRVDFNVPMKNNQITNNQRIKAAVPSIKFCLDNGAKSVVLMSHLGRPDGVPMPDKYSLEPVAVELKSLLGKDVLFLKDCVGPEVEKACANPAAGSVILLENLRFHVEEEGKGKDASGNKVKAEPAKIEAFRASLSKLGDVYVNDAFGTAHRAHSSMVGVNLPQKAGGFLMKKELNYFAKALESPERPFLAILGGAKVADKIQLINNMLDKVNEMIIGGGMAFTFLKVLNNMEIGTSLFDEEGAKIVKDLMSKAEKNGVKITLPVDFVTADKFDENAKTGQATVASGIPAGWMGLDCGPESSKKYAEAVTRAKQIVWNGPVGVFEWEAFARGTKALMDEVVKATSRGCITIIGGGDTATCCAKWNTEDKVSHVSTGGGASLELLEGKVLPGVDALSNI
UniProt P0C0S5, whole entry, looked up: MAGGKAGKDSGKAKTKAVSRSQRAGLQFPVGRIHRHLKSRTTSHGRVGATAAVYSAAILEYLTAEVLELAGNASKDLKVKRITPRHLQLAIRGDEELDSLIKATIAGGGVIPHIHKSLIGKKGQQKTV
UniProt O96011: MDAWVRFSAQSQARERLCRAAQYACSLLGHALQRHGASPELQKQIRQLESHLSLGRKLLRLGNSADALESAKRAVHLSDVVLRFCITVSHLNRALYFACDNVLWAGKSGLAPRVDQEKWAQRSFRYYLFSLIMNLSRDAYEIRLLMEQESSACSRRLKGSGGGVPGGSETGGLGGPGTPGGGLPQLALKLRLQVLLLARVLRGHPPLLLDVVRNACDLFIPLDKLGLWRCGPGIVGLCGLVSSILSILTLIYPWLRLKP
UniProt P10636, whole entry: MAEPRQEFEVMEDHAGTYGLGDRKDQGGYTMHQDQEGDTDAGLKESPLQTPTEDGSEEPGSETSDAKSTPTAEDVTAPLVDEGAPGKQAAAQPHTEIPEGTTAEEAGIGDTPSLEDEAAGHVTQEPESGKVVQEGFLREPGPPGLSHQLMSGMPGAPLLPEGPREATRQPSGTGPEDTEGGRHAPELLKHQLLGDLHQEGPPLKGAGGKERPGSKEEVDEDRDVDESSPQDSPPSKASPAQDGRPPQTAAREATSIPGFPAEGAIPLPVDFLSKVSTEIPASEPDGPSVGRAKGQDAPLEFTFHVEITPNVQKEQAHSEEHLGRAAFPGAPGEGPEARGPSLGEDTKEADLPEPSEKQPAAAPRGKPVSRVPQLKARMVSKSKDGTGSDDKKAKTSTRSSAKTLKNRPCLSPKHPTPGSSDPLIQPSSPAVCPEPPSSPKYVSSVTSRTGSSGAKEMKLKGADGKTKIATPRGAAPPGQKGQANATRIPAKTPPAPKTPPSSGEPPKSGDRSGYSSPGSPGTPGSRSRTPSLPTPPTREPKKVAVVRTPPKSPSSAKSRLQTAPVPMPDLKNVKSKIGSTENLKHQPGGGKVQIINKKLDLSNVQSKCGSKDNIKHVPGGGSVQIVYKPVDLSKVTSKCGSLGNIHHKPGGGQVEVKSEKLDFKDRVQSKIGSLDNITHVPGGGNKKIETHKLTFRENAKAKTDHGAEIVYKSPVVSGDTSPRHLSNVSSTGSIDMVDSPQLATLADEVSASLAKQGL
UniProt O95721: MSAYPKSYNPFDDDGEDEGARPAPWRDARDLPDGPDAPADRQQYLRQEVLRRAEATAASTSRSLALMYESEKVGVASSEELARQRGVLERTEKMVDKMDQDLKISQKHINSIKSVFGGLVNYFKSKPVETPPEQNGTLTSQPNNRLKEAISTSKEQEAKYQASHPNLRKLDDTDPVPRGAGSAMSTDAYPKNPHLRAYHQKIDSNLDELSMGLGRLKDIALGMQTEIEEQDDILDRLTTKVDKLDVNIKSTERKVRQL
UniProt P02786, whole entry, looked up: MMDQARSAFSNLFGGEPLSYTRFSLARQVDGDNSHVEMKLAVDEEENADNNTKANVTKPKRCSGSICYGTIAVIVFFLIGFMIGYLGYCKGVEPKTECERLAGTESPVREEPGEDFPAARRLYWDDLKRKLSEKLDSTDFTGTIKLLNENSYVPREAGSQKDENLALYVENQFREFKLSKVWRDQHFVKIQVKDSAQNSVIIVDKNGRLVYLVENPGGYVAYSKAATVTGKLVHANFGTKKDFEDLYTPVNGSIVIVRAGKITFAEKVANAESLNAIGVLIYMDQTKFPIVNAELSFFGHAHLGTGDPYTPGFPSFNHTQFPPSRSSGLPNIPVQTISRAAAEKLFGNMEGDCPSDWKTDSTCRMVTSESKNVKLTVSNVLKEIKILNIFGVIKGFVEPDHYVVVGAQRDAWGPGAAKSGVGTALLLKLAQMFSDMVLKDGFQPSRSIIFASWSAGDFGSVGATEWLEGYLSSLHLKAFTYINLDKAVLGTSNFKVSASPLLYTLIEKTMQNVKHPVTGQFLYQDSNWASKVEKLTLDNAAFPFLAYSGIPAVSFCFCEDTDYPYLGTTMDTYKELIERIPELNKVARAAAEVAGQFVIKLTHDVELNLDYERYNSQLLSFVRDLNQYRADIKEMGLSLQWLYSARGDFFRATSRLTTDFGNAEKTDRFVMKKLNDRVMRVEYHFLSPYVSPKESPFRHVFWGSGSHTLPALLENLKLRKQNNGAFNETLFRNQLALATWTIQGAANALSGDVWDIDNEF
UniProt P12277: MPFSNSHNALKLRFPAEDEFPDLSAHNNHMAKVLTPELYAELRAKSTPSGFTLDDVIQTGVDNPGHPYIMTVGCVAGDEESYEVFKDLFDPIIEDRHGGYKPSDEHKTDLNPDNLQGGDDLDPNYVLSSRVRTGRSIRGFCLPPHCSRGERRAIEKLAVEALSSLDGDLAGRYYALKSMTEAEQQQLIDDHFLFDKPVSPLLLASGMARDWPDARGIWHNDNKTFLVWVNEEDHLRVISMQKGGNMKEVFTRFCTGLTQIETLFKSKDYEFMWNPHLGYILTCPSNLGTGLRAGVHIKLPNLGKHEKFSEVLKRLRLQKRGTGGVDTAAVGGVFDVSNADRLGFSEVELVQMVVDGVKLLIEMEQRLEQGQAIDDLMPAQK
UniProt P08651, whole entry: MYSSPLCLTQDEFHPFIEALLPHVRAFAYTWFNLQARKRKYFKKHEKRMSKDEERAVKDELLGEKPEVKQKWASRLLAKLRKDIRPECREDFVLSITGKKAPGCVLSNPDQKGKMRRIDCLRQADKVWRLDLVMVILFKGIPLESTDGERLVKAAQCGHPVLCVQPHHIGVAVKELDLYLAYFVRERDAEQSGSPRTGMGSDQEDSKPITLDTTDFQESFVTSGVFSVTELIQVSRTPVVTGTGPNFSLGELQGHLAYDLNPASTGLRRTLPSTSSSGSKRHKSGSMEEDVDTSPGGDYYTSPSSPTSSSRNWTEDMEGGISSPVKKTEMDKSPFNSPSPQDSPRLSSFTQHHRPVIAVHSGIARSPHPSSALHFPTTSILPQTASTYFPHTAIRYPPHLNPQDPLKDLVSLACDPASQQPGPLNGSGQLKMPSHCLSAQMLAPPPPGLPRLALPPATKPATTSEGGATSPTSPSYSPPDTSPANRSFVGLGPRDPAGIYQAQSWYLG
UniProt P08134, whole entry: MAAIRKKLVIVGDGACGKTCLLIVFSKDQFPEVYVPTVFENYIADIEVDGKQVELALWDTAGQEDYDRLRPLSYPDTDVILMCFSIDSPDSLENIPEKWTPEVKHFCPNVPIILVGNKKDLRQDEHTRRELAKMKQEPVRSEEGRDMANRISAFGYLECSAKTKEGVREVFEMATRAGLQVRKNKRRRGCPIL
UniProt P00492: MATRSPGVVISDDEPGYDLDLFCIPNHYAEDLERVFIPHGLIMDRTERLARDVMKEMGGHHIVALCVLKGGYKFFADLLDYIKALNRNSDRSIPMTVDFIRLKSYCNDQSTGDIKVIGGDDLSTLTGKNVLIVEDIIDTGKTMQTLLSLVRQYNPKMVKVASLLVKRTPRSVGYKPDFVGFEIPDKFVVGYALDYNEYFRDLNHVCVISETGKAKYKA
UniProt P04818: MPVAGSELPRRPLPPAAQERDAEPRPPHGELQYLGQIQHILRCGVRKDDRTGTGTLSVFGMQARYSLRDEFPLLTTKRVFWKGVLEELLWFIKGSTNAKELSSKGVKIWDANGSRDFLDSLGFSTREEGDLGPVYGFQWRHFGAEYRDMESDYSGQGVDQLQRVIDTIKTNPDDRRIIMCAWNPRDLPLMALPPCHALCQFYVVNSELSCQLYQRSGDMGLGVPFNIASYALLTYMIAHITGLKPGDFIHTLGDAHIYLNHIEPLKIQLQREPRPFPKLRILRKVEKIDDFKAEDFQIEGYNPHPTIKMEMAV
UniProt O96007: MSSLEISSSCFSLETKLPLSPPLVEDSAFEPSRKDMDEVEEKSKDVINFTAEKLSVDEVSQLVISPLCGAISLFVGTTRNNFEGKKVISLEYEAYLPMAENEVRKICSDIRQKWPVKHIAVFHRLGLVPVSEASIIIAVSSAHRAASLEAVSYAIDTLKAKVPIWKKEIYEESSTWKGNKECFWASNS
UniProt O96033: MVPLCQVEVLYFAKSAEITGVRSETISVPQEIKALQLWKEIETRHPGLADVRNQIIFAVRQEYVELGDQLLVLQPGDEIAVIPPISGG
UniProt P08754, whole entry: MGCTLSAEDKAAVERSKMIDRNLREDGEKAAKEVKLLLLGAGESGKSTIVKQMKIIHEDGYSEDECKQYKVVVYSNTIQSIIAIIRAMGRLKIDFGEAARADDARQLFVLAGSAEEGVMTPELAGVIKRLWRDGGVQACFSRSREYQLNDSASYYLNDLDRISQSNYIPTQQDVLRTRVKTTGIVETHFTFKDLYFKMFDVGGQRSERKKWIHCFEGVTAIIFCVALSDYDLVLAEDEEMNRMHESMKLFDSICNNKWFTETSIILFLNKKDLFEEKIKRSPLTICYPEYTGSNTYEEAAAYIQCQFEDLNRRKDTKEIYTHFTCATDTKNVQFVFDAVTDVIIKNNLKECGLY
UniProt O95989: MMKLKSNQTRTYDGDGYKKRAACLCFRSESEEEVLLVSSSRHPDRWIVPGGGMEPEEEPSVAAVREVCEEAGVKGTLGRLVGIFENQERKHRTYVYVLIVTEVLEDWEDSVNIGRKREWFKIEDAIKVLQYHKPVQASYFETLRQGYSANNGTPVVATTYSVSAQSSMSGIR
UniProt P02792: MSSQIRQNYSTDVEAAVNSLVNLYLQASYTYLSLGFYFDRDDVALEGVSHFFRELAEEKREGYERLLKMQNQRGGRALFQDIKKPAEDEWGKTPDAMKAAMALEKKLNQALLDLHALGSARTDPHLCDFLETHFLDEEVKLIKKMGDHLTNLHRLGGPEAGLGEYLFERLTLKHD
UniProt P09693, whole entry: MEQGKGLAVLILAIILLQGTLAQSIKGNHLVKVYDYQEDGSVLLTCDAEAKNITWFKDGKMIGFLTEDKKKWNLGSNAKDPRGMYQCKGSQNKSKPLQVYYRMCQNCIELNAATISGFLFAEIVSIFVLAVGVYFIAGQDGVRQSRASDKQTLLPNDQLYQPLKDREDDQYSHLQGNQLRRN
UniProt P04181: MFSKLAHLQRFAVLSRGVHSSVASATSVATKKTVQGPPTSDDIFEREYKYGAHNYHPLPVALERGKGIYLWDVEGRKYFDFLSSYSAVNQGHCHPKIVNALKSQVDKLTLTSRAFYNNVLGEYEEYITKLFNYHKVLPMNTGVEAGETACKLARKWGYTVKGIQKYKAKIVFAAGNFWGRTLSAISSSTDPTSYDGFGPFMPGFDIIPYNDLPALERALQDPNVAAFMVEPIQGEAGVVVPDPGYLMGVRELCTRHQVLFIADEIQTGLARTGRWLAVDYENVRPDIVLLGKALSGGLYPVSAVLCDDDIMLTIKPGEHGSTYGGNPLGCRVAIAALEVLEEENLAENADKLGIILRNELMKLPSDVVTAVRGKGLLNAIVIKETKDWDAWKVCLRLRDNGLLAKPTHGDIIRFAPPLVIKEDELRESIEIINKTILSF

compound: Nc1ncnc2c1ncn2[C@@H]1O[C@H](COP(=O)(O)OP(=O)(O)NP(=O)(O)O)[C@@H](O)[C@H]1O [adenylyl imidodiphosphate]; experiment: NP40-soluble protein abundance relative to vehicle (solubility fold change) (ratio); higher = more soluble protein in presence of AMP-PNP; conditions: concentration: 0.1mM
How it was run: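 Across three independent experiments, values are fold changes against the detergent-processed vehicle for each replicate, based on vsn-normalised intensities. The samples were Jurkat crude lysate treated with eight concentrations (0.1 to 10 mM) for 10 min at room temperature and then 3 min at 37 °C. Lysate was solubilised with 0.8% NP40 and benzonase, ultracentrifuged, and the supernatant analysed by TMT-labelled LC-MS/MS.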

Target	NP40-soluble protein abundance
LATS1 (UniProt O95835)	1.008 ± 0.0042
UniProt P07992 and related entries	1.01 ± 0.09
CRYZL1 (UniProt O95825)	0.974 ± 0.021
UniProt P07437	1 ± 0.021
GALT (UniProt P07902)	0.986 ± 0.02
PGK1 (UniProt P00558)	0.947 ± 0.21
PLCG2 (UniProt P16885)	0.998 ± 0.031
P0C0S5 and related entries (UniProt Q71UI9+P0C0S5)	0.989 ± 0.069
UniProt O96011 and related entries	1.02 ± 0.072
CAT (UniProt P04040)	1.02 ± 0.015
ADA (UniProt P00813)	0.992 ± 0.012
UniProt P10636-2|P10636-4|P10636-7|P10636-9|P10636-6	0.977 ± 0.035
VIM (UniProt P08670)	0.983 ± 0.036
SNAP29 (UniProt O95721)	0.985 ± 0.083
HIST1H1B (UniProt P16401)	1.02 ± 0.048
UROS (UniProt P10746)	1 ± 0.026
TFRC (UniProt P02786)	1.01 ± 0.038
CKB (UniProt P12277)	0.9956 ± 0.0049
UniProt P08651 and related entries	1.05 ± 0.03

Target	NP40-soluble protein abundance
CAPN1 (UniProt P07384)	1.01 ± 0.049
SLC25A5 (UniProt P05141)	1.03 ± 0.048
UniProt O95758-6|O95758-1	0.993 ± 0.062
UniProt P08134 and related entries	1.04 ± 0.06
UniProt P05388 and related entries	1.04 ± 0.092
HPRT1 (UniProt P00492)	1.03 ± 0.031
TYMS (UniProt P04818)	1.01 ± 0.057
BAG2 (UniProt O95816)	1.13 ± 0.031
GAPDH (UniProt P04406)	0.996 ± 0.085
ZBTB48 (UniProt P10074)	0.977 ± 0.027
UniProt P15927 and related entries	0.9954 ± 0.0062
ANXA3 (UniProt P12429)	0.99 ± 0.011
O96007 and related entries (UniProt O96033+O96007)	0.997 ± 0.037
GNAI3 (UniProt P08754)	1.01 ± 0.058
NUDT3 (UniProt O95989)	1 ± 0.086
FTL (UniProt P02792)	1.02 ± 0.029
UniProt P09693	0.938 ± 0.074
OAT (UniProt P04181)	1.03 ± 0.038

same assay, conditions: concentration: 0.5mM

Target	NP40-soluble protein abundance
LATS1 (UniProt O95835)	1 ± 0.013
UniProt P07992 and related entries	1.02 ± 0.092
CRYZL1 (UniProt O95825)	0.982 ± 0.021
UniProt P07437	0.988 ± 0.035
GALT (UniProt P07902)	0.99 ± 0.058
PGK1 (UniProt P00558)	0.913 ± 0.15
PLCG2 (UniProt P16885)	0.982 ± 0.068
P0C0S5 and related entries (UniProt Q71UI9+P0C0S5)	0.989 ± 0.12
UniProt O96011 and related entries	0.977 ± 0.1
CAT (UniProt P04040)	0.994 ± 0.013
ADA (UniProt P00813)	0.9974 ± 0.009
UniProt P10636-2|P10636-4|P10636-7|P10636-9|P10636-6	1.02 ± 0.07
VIM (UniProt P08670)	1.04 ± 0.093
SNAP29 (UniProt O95721)	0.989 ± 0.074
HIST1H1B (UniProt P16401)	1.08 ± 0.065
UROS (UniProt P10746)	0.988 ± 0.044
TFRC (UniProt P02786)	1.04 ± 0.057
CKB (UniProt P12277)	0.994 ± 0.03
UniProt P08651 and related entries	1.02 ± 0.044

Target	NP40-soluble protein abundance
CAPN1 (UniProt P07384)	0.99 ± 0.061
SLC25A5 (UniProt P05141)	1 ± 0.034
UniProt O95758-6|O95758-1	0.997 ± 0.0066
UniProt P08134 and related entries	1.08 ± 0.054
UniProt P05388 and related entries	1.02 ± 0.046
HPRT1 (UniProt P00492)	0.998 ± 0.087
TYMS (UniProt P04818)	0.971 ± 0.11
BAG2 (UniProt O95816)	1.17 ± 0.044
GAPDH (UniProt P04406)	1.01 ± 0.012
ZBTB48 (UniProt P10074)	0.987 ± 0.049
UniProt P15927 and related entries	1.014 ± 0.0085
ANXA3 (UniProt P12429)	1.014 ± 0.0013
O96007 and related entries (UniProt O96033+O96007)	1.011 ± 0.0042
GNAI3 (UniProt P08754)	0.992 ± 0.11
NUDT3 (UniProt O95989)	0.994 ± 0.04
FTL (UniProt P02792)	1.01 ± 0.02
UniProt P09693	0.999 ± 0.076
OAT (UniProt P04181)	1.03 ± 0.014
